This is an account of results in PubChem BioAssay AID288 (DTP/NCI, 2004).

The list shows only some results of the screen, not a fair sample: it gathers tests that were run many times, whatever their T/C, doses with no T/C, and many T/C values between a quarter and a half above the control. Other doses and runs of a compound stand elsewhere. T/C is the treated group as % of the vehicle group. Some doses have a count of surviving animals in place of a T/C: the source files T/C as zero there, which appears to mark a toxic dose or a test without result, not a measured value. Some survivor counts are full or nearly so, which does not show that the dose was tolerated: survival well below the control is almost never listed, so the zero probably covers shortened survival too. Survivors were counted at the toxicity check, usually on the fifth day, unless a day is given; later deaths do not show. Schedule codes are those of the source, read here as Q, the interval in days (D) or hours (H), X, the number of doses. Where survival is the endpoint, the PubChem record calls one and a half times the control and up active, and a quarter to a half above the control has no call in these data; cut-offs in other NCI protocols can differ. Some T/C values are followed by the survivors on the day toxicity was checked, most often the fifth; without a count, all were alive then.

The experiment concerns BDF1 mice, M5076 sarcoma s.c., survival/tumor T/C. Put plainly: NCI In Vivo Anticancer Drug Screen. Data for tumor model Sarcoma M5076 (subcutaneous) in B6D2F1 (BDF1) mice. Here is the method:
The antitumor activity of compounds was measured in mice bearing transplantable tumors. Survival or tumor size were measured and the results are expressed as the measurement made in the treated group (T) divided by the measurement made in the vehicle treated control group (C). The tumor model used in this assay is Sarcoma M5076 (subcutaneous) in B6D2F1 (BDF1) mice

The mark [1] stands for this setting: T/C endpoint: median survival time, dose: 256.0 mg/kg/injection, schedule: Q01DX009 (ip), vehicle: saline with Tween-80, higher T/C = longer survival.

In the case of `Cc1nc(N)nc(N)c1-c1ccc(Cl)c(Cl)c1`, the survivor count is 6 of 10 on day 62 (T/C endpoint: median survival time, dose: 2.3 mg/kg/injection, schedule: Q01DX009 (ip), vehicle: normal media, higher T/C = longer survival); 0 of 10 on day 62 (T/C endpoint: median survival time, dose: 3.5 mg/kg/injection, schedule: Q01DX009 (ip), vehicle: normal media, higher T/C = longer survival); 0 of 10 on day 62 (T/C endpoint: median survival time, dose: 17.0 mg/kg/injection, schedule: Q04DX003 (ip), vehicle: normal media, higher T/C = longer survival); 0 of 10 on day 62 (T/C endpoint: median survival time, dose: 25.0 mg/kg/injection, schedule: Q04DX003 (ip), vehicle: normal media, higher T/C = longer survival); 5 of 10 on day 62 (T/C endpoint: median survival time, dose: 38.0 mg/kg/injection, schedule: Q01DX001 (ip), vehicle: normal media, higher T/C = longer survival); 0 of 10 on day 62 (T/C endpoint: median survival time, dose: 38.0 mg/kg/injection, schedule: Q04DX003 (ip), vehicle: normal media, higher T/C = longer survival). Besides, the survivor count is, setting by setting: (T/C endpoint: median survival time, dose: 56.0 mg/kg/injection, schedule: Q01DX001 (ip), vehicle: normal media, higher T/C = longer survival) 0 of 10 on day 62; (T/C endpoint: median survival time, dose: 84.0 mg/kg/injection, schedule: Q01DX001 (ip), vehicle: normal media, higher T/C = longer survival) 0 of 10 on day 62.

As to `CC[C@]1(O)C[C@H]2CN(CCc3c([nH]c4ccccc34)[C@@](C(=O)OC)(c3cc4c(cc3OC)N(C=O)[C@H]3[C@@](O)(C(=O)OC)[C@H](OC(C)=O)[C@]5(CC)C=CCN6CC[C@]43[C@@H]65)C2)C1`, the T/C (T/C endpoint: median survival time, dose: 0.04 mg/kg/injection, schedule: Q02DX030 (ip), vehicle: saline, higher T/C = longer survival) is 125 % of control. For the same molecule, the survivor count by setting is: (T/C endpoint: median survival time, dose: 0.15 mg/kg/injection, schedule: Q02DX033 (ip), vehicle: saline, higher T/C = longer survival) 10 of 10 on day 16; (T/C endpoint: median survival time, dose: 0.3 mg/kg/injection, schedule: Q02DX033 (ip), vehicle: saline, higher T/C = longer survival) 7 of 10 on day 16.

As to `S=c1nc[nH]c2nc[nH]c12`, the survivor count (T/C endpoint: median survival time, dose: 25.0 mg/kg/injection, schedule: Q02DX033 (ip), vehicle: saline with Tween-80, higher T/C = longer survival) is reported as 3 of 10 on day 16.

With `COCC(O)Cn1ccnc1[N+](=O)[O-]` (stereo not drawn), the T/C is 129 % of control [8 of 9 alive] (T/C endpoint: median survival time, dose: 446.2 mg/kg/injection, schedule: Q07DX002 (ip), vehicle: saline, higher T/C = longer survival); 95 % of control (T/C endpoint: median survival time, dose: 600.0 mg/kg/injection, schedule: Q01DX001 (ip), vehicle: saline, evaluated on day 17, higher T/C = longer survival); 93 % of control (T/C endpoint: median survival time, dose: 600.0 mg/kg/injection, schedule: Q01DX001 (ip), vehicle: saline, evaluated on day 48, higher T/C = longer survival); 95 % of control [9 of 10 alive on day 61] (T/C endpoint: median survival time, dose: 600.0 mg/kg/injection, schedule: Q01DX001 (ip), vehicle: saline, evaluated on day 61, higher T/C = longer survival); 97 % of control (T/C endpoint: median survival time, dose: 1000.0 mg/kg/injection, schedule: Q01DX001 (ip), vehicle: saline, evaluated on day 17, higher T/C = longer survival); 101 % of control [2 of 5 alive] (T/C endpoint: median survival time, dose: 1000.0 mg/kg/injection, schedule: Q01DX001 (ip), vehicle: saline, evaluated on day 38, higher T/C = longer survival). The T/C is 98 % of control (T/C endpoint: median survival time, dose: 1000.0 mg/kg/injection, schedule: Q01DX001 (ip), vehicle: saline, evaluated on day 48, higher T/C = longer survival) and 96 % of control (T/C endpoint: median survival time, dose: 1000.0 mg/kg/injection, schedule: Q01DX001 (ip), vehicle: saline, evaluated on day 61, higher T/C = longer survival).

As to `CC(=O)O[C@H]1C(=O)[C@@]2(C)[C@H]([C@H](OC(=O)c3ccccc3)[C@]3(O)C[C@H](OC(=O)[C@H](O)[C@@H](NC(=O)c4ccccc4)c4ccccc4)C(C)=C1C3(C)C)[C@]1(OC(C)=O)CO[C@@H]1C[C@@H]2O`, the T/C (T/C endpoint: median survival time, dose: 2.96 mg/kg/injection, schedule: Q02DX011 (ip), vehicle: other, higher T/C = longer survival) is 130 % of control. For the same molecule, the survivor count is recorded as 3 of 10 (T/C endpoint: median survival time, dose: 20.0 mg/kg/injection, schedule: Q04DX003 (ip), vehicle: Klucel (hydroxypropylcellulose) (HPC), higher T/C = longer survival); 10 of 10 (T/C endpoint: median survival time, dose: 22.5 mg/kg/injection, schedule: Q02DX011 (ip), vehicle: Klucel (hydroxypropylcellulose) (HPC), higher T/C = longer survival); 1 of 10 on day 22 (T/C endpoint: median tumor weight (est.), dose: 22.5 mg/kg/injection, schedule: Q02DX011 (ip), vehicle: Klucel (hydroxypropylcellulose) (HPC), higher T/C = larger tumour).

For `O=NN(CCCl)C(=O)NC1CCCCC1`, the T/C (T/C endpoint: median survival time, dose: 1.5 mg/kg/injection, schedule: Q01DX009 (ip), vehicle: Klucel (hydroxypropylcellulose) (HPC), higher T/C = longer survival) is 126 % of control. For the same molecule, for the setting “T/C endpoint: median survival time, dose: 24.0 mg/kg/injection, schedule: Q01DX009 (ip), vehicle: Klucel (hydroxypropylcellulose) (HPC), higher T/C = longer survival”, the survivor count was 10 of 10.

Take `O=C1CC(Cl)(CS(F)(F)(F)(F)F)O1` (stereo not drawn): the survivor count (T/C endpoint: median survival time, dose: 100.0 mg/kg/injection, schedule: Q01DX009 (ip), vehicle: saline with Tween-80, higher T/C = longer survival) is 0 of 10 on day 9; the survivor count (T/C endpoint: median survival time, dose: 200.0 mg/kg/injection, schedule: Q01DX009 (ip), vehicle: saline with Tween-80, higher T/C = longer survival) is recorded as 0 of 10 on day 9; the survivor count (T/C endpoint: median tumor weight (est.), dose: 100.0 mg/kg/injection, schedule: Q01DX009 (ip), vehicle: saline with Tween-80, higher T/C = larger tumour) was 0 of 10 on day 20; the survivor count (T/C endpoint: median tumor weight (est.), dose: 200.0 mg/kg/injection, schedule: Q01DX009 (ip), vehicle: saline with Tween-80, higher T/C = larger tumour) is recorded as 0 of 10 on day 20.

For `O=C1NC2(CCCCC2)C(=O)N1CCN(CCCl)CCCl`, the T/C (T/C endpoint: median survival time, dose: 16.0 mg/kg/injection, schedule: Q01DX009 (ip), vehicle: saline with Tween-80, higher T/C = longer survival) was 133 % of control. Besides, the survivor count runs as follows: (T/C endpoint: median survival time, dose: 32.0 mg/kg/injection, schedule: Q01DX009 (ip), vehicle: saline with Tween-80, higher T/C = longer survival) 2 of 10 on day 9; (T/C endpoint: median survival time, dose: 64.0 mg/kg/injection, schedule: Q01DX009 (ip), vehicle: saline with Tween-80, higher T/C = longer survival) 0 of 10 on day 9; (T/C endpoint: median survival time, dose: 128.0 mg/kg/injection, schedule: Q01DX009 (ip), vehicle: saline with Tween-80, higher T/C = longer survival) 0 of 10 on day 9; (T/C endpoint: median tumor weight (est.), dose: 32.0 mg/kg/injection, schedule: Q01DX009 (ip), vehicle: saline with Tween-80, higher T/C = larger tumour) 0 of 10 on day 20; (T/C endpoint: median tumor weight (est.), dose: 64.0 mg/kg/injection, schedule: Q01DX009 (ip), vehicle: saline with Tween-80, higher T/C = larger tumour) 0 of 10 on day 20; (T/C endpoint: median tumor weight (est.), dose: 128.0 mg/kg/injection, schedule: Q01DX009 (ip), vehicle: saline with Tween-80, higher T/C = larger tumour) 0 of 10 on day 20.

Consider `CC1CCC(NC(=O)N(CCF)N=O)CC1` (stereo not drawn), for which the survivor count (T/C endpoint: median survival time, dose: 40.0 mg/kg/injection, schedule: Q01DX003 (ip), vehicle: saline with Tween-80, higher T/C = longer survival) is given as 5 of 10 on day 65; the survivor count (T/C endpoint: median survival time, dose: 50.0 mg/kg/injection, schedule: Q01DX003 (ip), vehicle: saline with Tween-80, higher T/C = longer survival) is 0 of 10 on day 65; the survivor count (T/C endpoint: median survival time, dose: 75.0 mg/kg/injection, schedule: Q01DX001 (ip), vehicle: saline with Tween-80, higher T/C = longer survival) was 1 of 10 on day 65; the survivor count (T/C endpoint: median survival time, dose: 75.0 mg/kg/injection, schedule: Q01DX003 (ip), vehicle: saline with Tween-80, higher T/C = longer survival) is 0 of 10 on day 65; the survivor count (T/C endpoint: median survival time, dose: 100.0 mg/kg/injection, schedule: Q01DX001 (ip), vehicle: saline with Tween-80, higher T/C = longer survival) was 0 of 10 on day 65; the survivor count (T/C endpoint: median survival time, dose: 150.0 mg/kg/injection, schedule: Q01DX001 (ip), vehicle: saline with Tween-80, higher T/C = longer survival) is given as 0 of 10 on day 65.

With `C[C@@H](CN1CC(=O)NC(=O)C1)N1CC(=O)NC(=O)C1`, the T/C under setting [1] was 134 % of control. The survivor count is reported as 8 of 10 on day 9 under setting [1]; 1 of 10 on day 9 (T/C endpoint: median survival time, dose: 512.0 mg/kg/injection, schedule: Q01DX009 (ip), vehicle: saline with Tween-80, higher T/C = longer survival); 3 of 10 on day 20 (T/C endpoint: median tumor weight (est.), dose: 256.0 mg/kg/injection, schedule: Q01DX009 (ip), vehicle: saline with Tween-80, higher T/C = larger tumour); 0 of 10 on day 20 (T/C endpoint: median tumor weight (est.), dose: 512.0 mg/kg/injection, schedule: Q01DX009 (ip), vehicle: saline with Tween-80, higher T/C = larger tumour).
